Paper doi:10.1101/162958

Experiments:
Assay in all cases: co-IP
[1] = target: T1, Stx3 (1–146), soluble three-helix bundle, myc-tagged (human) (UniProt Q13277)
T1 sequence: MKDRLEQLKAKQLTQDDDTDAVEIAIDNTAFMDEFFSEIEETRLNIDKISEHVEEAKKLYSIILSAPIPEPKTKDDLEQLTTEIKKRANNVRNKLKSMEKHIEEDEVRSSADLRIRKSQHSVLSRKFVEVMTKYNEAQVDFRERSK

[2] = target: T2, C-terminally myc-epitope tagged Stx3 (membrane-anchored Stx3A) (human) (UniProt Q13277)
T2 sequence: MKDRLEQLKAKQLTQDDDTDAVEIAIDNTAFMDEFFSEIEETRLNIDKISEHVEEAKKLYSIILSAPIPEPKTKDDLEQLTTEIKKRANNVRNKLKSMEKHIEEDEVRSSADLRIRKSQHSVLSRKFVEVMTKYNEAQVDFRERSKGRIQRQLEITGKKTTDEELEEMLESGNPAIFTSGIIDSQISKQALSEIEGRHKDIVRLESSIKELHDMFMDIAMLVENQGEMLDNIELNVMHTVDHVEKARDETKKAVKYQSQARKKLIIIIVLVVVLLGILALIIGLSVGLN

[3] = target: RanBP5 (endogenous in MDCK cells) (dog (endogenous in MDCK))

| Molecule | binding [1] | binding [2] | binding [3] |
| --- | --- | --- | --- |
| RanBP5 (endogenous in MDCK cells) | binds | binds |  |
| C-terminally myc-epitope tagged Stx3 (membrane-anchored Stx3A) (protein, UniProt Q13277 1-289) MKDRLEQLKAKQLTQDDDTDAVEIAIDNTAFMDEFFSEIEETRLNIDKISEHVEEAKKLYSIILSAPIPEPKTKDDLEQLTTEIKKRANNVRNKLKSMEKHIEEDEVRSSADLRIRKSQHSVLSRKFVEVMTKYNEAQVDFRERSKGRIQRQLEITGKKTTDEELEEMLESGNPAIFTSGIIDSQISKQALSEIEGRHKDIVRLESSIKELHDMFMDIAMLVENQGEMLDNIELNVMHTVDHVEKARDETKKAVKYQSQARKKLIIIIVLVVVLLGILALIIGLSVGLN |  |  | binds |

Results are given in words; binding and its absence hold for the method and conditions named. In cells and extracts the contact can be indirect. Binding can be weak; no strength is given. Where a sequence is shown, tags or fusion partners need not be part of it.
